PubChem BioAssay AID504774, Drosophila RNAi Screening Center, 2011

- Aim: 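Genes required for cells to withstand methyl methanesulphonate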 (primary screen)
- Cells: Drosophila Kc167 cells
- Knock-down reagent: long dsRNA against Drosophila genes, about 0.25 µg dsRNA per well
- Duration: about 6 days: 3 days knock-down, then 3 days with or without MMS
- Challenge: methyl methanesulphonate 0.004% (w/v) for 3 days after knock-down
- Measurement: 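ATP-dependent luminescence as a measure of live cells in MMS-exposed wells, quantile normalised within each plate, with replicate values also given as a mean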
- Reading the numbers: mean viability with MMS and viability with MMS: higher = more surviving cells after MMS
The screen tested about 23,000 reagents; this is a random part of those that have a named target and a result. 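Values are quantile-normalised luminescence on an arbitrary scale; higher means more cells surviving MMS.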 Reagents against one gene are numbered here. A plus sign joins genes that one reagent is predicted to hit.

gene,dsRNA no.,mean viability with MMS,"viability with MMS, replicate 1","viability with MMS, replicate 2"
CG5555 (GeneID 42302),1,3.54e6,4.09e6,3.94e6
CG14109 (GeneID 39512),1,3.64e6,4.03e6,4.18e6
unc-4 (GeneID 32757),1,3.52e6,3.84e6,4.13e6
unc-4 (GeneID 32757),2,3.76e6,4.24e6,4.17e6
PDZ-GEF (GeneID 33881),1,3.51e6,3.88e6,4.08e6
CG7137 (GeneID 37204),1,3.59e6,4.13e6,4.02e6
CG15742 (GeneID 32276),1,3.43e6,3.49e6,4.09e6
Jupiter (GeneID 41392),1,3.45e6,3.86e6,3.94e6
Jupiter (GeneID 41392),2,3.65e6,4.02e6,4.18e6
Jupiter (GeneID 41392),3,3.57e6,4.01e6,4.07e6
CG2017 (GeneID 40733),1,3.63e6,4.11e6,4.16e6
CG32625 (GeneID 318128),1,3.63e6,4.11e6,4.04e6
Rbsn-5 (GeneID 34110),1,3.64e6,4.13e6,4.16e6
slmo + CG34179,1,3.55e6,4.06e6,3.99e6
CG18530 (GeneID 59241),1,3.60e6,4.08e6,4.05e6
Arts + Apl,1,3.60e6,3.98e6,4.16e6
ms(2)34Fe (GeneID 34833),1,3.51e6,4.00e6,3.98e6
bnb (GeneID 32872),1,3.68e6,4.11e6,4.27e6
CG32945 (GeneID 318261),1,3.42e6,3.97e6,3.84e6
CG7432 (GeneID 42347),1,3.78e6,4.52e6,4.05e6
ScpX (GeneID 44183),1,3.64e6,4.05e6,4.23e6
Ak6 (GeneID 36379),1,3.64e6,4.07e6,4.28e6
Socs16D (GeneID 32760),1,3.44e6,3.91e6,3.86e6
Socs16D (GeneID 32760),2,3.51e6,4.01e6,3.98e6
CG9072 (GeneID 32443),1,3.49e6,3.96e6,3.94e6
Synj (GeneID 37517),1,3.55e6,4.14e6,3.86e6
nito (GeneID 35756),1,3.47e6,3.87e6,3.97e6
Odj (GeneID 42145),1,3.57e6,4.06e6,4.04e6

Part of the list above, reformatted.
Jupiter (GeneID 41392) #2
- mean viability with MMS: 3.65e6
- viability with MMS, replicate 1: 4.02e6
- viability with MMS, replicate 2: 4.18e6

Jupiter (GeneID 41392) #3
- mean viability with MMS: 3.57e6
- viability with MMS, replicate 1: 4.01e6
- viability with MMS, replicate 2: 4.07e6

CG2017 (GeneID 40733)
- mean viability with MMS: 3.63e6
- viability with MMS, replicate 1: 4.11e6
- viability with MMS, replicate 2: 4.16e6
